Measured values published in publication doi:10.1101/2024.07.22.604556.
These are yes or no findings as the source states them, for the method shown. In cells and extracts the contact can be indirect. These calls come from enrichment with a bait or labelling near it, and not all partners need be listed.

Biological target: CSB-mScarletI (knock-in) (human (endogenous in HCT116)) (UniProt Q03468)
Test: affinity purification with mass spectrometry

binding	Substance
binds	CUL4A (from UniProt Q13619 1-759)
binds	DDB1 (from UniProt Q16531 1-1140)
